This passage reports binding results from doi:10.1101/2021.10.01.462723.

The chains behind the UniProt entries cited, without tags or fusion partners.
UniProt P49792: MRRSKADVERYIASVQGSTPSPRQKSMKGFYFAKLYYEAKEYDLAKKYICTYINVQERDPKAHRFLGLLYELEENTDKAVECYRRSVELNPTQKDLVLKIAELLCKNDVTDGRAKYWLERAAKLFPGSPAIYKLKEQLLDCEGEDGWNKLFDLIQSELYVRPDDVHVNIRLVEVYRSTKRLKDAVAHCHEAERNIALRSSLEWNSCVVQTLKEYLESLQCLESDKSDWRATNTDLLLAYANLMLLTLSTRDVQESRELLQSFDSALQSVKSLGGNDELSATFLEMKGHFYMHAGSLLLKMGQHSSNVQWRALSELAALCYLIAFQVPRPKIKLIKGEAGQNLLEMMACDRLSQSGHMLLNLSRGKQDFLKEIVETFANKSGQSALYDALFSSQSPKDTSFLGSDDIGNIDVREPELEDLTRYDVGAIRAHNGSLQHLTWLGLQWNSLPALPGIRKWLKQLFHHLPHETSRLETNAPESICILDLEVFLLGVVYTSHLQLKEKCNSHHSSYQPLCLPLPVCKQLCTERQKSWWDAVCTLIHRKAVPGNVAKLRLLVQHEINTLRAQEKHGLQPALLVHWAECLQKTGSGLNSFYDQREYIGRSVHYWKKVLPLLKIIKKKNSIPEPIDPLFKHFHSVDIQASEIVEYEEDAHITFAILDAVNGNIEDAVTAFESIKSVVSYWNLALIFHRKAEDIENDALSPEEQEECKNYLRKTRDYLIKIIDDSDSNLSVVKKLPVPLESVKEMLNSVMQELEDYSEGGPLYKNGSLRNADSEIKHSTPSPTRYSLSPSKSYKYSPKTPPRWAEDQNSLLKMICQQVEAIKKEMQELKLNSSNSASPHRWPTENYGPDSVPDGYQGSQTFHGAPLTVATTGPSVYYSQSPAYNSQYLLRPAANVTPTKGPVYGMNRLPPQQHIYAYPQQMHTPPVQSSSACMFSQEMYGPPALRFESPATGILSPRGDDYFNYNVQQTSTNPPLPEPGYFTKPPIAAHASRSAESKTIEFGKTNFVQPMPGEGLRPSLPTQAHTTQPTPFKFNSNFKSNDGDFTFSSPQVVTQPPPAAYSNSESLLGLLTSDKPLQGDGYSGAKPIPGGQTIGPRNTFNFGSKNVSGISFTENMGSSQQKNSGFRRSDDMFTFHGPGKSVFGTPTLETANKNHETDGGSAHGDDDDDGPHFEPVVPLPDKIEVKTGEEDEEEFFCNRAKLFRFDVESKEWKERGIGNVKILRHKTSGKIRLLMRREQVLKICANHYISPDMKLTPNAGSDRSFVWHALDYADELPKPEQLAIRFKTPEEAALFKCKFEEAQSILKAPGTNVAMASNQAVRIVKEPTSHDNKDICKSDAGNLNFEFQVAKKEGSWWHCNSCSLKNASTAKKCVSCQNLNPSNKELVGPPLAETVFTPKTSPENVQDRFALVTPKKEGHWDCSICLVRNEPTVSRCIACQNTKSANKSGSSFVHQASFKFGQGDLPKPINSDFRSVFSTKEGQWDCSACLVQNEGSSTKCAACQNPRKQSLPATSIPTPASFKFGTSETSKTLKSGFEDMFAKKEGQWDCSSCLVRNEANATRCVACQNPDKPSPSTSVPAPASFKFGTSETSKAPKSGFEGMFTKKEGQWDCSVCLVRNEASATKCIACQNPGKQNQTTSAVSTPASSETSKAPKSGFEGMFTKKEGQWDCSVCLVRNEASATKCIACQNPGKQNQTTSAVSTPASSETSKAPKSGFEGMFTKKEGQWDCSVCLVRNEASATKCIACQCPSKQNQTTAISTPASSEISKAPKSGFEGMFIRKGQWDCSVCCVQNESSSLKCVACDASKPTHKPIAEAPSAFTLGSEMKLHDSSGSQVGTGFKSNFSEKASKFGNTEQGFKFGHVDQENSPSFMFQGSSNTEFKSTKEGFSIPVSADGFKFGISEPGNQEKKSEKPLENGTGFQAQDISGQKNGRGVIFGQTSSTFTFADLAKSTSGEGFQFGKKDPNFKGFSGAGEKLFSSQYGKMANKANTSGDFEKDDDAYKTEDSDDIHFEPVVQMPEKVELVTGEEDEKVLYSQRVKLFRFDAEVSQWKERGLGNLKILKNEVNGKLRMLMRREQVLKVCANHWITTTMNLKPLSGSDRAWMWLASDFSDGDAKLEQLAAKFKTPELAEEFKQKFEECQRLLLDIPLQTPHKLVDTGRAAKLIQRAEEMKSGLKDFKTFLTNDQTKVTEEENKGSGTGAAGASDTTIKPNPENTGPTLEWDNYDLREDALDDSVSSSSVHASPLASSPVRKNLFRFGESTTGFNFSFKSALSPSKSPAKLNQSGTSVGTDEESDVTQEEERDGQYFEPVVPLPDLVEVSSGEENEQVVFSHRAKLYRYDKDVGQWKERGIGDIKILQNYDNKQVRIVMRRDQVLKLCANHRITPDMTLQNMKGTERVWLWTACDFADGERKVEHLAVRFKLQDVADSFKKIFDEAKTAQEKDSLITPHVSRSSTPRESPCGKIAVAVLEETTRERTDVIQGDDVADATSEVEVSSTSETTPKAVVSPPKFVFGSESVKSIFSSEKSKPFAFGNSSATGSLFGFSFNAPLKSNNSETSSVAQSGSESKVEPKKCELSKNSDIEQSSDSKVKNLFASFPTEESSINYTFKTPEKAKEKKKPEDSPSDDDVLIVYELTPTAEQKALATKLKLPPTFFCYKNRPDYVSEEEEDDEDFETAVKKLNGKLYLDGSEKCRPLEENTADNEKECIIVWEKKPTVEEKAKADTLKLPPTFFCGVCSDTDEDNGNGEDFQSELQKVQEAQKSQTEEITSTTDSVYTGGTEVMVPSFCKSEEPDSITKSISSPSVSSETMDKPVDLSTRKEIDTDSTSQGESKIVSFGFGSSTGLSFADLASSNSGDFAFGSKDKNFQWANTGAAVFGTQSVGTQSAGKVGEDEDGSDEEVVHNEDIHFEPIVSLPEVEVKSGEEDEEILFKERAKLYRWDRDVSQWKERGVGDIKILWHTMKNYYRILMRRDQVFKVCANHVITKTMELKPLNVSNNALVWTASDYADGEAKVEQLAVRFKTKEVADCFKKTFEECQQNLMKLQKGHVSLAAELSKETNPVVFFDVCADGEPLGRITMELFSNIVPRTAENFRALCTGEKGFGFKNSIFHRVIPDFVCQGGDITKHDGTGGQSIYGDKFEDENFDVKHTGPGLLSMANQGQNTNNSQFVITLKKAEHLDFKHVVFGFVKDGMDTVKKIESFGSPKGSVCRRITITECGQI
UniProt O95292: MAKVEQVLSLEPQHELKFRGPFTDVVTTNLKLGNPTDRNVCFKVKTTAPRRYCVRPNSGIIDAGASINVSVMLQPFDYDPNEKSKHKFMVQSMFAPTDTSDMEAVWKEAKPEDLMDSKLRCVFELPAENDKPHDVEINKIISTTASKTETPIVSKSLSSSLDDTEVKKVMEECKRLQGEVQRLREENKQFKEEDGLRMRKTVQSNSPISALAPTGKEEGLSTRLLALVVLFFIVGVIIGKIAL
UniProt Q14573: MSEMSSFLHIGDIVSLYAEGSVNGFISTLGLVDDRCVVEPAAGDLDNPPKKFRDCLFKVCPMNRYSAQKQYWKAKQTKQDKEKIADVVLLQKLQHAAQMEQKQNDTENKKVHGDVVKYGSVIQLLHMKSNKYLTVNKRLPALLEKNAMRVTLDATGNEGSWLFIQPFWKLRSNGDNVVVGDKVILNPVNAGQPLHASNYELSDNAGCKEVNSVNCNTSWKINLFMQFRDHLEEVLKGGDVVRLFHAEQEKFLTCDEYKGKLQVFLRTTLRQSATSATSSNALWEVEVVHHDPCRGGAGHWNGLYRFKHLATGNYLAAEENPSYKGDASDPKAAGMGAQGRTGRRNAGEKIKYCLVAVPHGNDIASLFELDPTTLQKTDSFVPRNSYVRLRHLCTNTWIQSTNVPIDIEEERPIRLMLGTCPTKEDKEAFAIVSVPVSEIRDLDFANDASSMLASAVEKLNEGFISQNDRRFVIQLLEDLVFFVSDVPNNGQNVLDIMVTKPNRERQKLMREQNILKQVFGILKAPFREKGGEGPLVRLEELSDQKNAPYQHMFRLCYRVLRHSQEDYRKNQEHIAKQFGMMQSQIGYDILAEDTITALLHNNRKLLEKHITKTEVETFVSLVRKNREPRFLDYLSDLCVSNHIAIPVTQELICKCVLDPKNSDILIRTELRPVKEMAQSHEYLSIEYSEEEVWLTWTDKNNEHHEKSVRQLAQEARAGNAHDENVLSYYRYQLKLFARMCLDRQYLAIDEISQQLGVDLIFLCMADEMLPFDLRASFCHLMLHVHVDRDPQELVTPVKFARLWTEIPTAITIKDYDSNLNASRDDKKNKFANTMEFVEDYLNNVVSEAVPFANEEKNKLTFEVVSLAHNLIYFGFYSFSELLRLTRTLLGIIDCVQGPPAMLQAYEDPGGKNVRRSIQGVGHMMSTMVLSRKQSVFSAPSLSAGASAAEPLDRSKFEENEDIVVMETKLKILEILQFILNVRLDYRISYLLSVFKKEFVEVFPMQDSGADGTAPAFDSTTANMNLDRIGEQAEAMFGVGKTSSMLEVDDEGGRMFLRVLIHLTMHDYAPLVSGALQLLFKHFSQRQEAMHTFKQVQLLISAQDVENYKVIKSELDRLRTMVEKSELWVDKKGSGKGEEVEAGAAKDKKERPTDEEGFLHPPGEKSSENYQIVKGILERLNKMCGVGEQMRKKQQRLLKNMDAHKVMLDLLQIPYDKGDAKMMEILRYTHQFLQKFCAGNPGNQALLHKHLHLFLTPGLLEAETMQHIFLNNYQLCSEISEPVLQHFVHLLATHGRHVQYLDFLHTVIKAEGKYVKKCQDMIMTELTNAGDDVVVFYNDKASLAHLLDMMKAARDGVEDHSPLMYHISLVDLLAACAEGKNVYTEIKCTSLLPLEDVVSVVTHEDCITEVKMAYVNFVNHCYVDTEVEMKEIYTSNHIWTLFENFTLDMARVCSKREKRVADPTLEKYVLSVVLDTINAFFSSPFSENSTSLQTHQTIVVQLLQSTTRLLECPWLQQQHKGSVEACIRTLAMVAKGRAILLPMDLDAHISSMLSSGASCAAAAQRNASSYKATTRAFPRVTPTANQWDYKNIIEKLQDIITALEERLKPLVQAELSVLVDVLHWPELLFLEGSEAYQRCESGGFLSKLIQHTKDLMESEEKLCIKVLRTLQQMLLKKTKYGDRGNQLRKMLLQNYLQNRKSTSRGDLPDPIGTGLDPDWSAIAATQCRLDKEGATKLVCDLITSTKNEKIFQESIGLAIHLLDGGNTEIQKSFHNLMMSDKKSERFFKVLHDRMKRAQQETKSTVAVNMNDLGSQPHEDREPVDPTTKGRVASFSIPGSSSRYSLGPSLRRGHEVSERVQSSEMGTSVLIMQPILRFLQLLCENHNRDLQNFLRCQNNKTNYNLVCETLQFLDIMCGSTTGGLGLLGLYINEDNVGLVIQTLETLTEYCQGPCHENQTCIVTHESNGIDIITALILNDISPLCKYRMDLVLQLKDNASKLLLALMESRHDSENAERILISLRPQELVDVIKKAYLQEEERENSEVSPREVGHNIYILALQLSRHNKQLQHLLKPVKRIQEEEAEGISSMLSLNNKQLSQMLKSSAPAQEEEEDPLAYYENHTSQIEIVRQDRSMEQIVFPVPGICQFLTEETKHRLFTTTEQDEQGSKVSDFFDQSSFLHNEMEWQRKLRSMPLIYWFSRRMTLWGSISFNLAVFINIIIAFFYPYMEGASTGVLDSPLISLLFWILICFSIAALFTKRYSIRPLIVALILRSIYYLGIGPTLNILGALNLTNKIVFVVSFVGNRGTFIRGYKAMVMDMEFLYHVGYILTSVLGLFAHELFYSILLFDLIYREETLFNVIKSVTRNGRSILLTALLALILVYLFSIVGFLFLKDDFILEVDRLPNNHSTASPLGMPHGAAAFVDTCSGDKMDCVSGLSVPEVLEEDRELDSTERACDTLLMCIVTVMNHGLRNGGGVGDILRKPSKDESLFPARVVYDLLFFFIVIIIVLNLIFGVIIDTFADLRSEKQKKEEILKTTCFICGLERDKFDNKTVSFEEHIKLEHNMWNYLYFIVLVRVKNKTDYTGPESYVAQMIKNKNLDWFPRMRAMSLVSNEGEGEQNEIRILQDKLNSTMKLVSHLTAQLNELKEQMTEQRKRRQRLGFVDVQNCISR

No constants are given. Whether binding was seen depends on the method and setting. In cells and extracts the contact can be indirect. Some entries that bind do so weakly or less than the wild type.

Experiment [1] deals with T1, PTPIP51 (human (endogenous in HeLa)) (UniProt Q96TC7).
T1 sequence: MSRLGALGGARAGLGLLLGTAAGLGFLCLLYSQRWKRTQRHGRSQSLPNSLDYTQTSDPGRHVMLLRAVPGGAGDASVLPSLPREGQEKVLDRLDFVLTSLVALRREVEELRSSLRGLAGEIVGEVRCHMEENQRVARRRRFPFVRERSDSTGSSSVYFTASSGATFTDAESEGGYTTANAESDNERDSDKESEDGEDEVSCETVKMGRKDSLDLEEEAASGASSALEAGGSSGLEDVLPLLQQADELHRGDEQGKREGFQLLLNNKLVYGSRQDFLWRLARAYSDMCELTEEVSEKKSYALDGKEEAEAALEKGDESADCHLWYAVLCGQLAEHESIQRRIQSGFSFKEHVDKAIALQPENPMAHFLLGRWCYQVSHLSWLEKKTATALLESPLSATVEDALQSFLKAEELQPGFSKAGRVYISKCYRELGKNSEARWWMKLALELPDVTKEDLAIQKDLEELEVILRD
The experiment is described as follows: proximity ligation.

Experiment [2] addresses T1, PTPIP51 (human (endogenous in HeLa)). The experiment is described as follows: co-IP.
Experiment [3] addresses Nup358 (human (endogenous in HEK293T)) (UniProt P49792). Kind of experiment: co-IP.
Experiment [4] deals with VAPB (human (endogenous in HeLa)) (UniProt O95292). Kind of experiment: proximity ligation.
Experiment [5] addresses Nup358 (human (endogenous in HeLa)) (UniProt P49792). Kind of experiment: proximity ligation.
The target is the same in experiment [6]. Kind of experiment: co-IP.

VAPB (from UniProt O95292 1-243): the binding result in experiment [1] and in experiment [2] was “binds” throughout. In the case of myc-VAPB (from UniProt O95292 1-243), the binding result in experiment [3] is given as “binds”. In the case of Nup358 (from UniProt P49792 1-3224), the binding entry in experiment [4] is listed as “binds”. Regarding IP3R3 (from UniProt Q14573 1-2671), the binding result in experiment [5] and in experiment [6] was “binds” each time.
